From US20190070266A1 (Novo Nordisk A/S, priority 2016, published 2019)
For at least one compound, name, drawing or mass did not settle the structure.

System: adult human subjects with type 2 diabetes at high risk for cardiovascular events
Assay: Randomised double-blind placebo-controlled trial: diabetic foot ulcer events and characterisation thereof
Assay type: in vivo

CCCCCCCCCCCCCCCC(=O)N[C@@H](CCC(=O)NCCCC[C@H](NC(=O)[C@H](C)NC(=O)[C@H](C)NC(=O)[C@H](CCC(N)=O)NC(=O)CNC(=O)[C@H](CCC(=O)O)NC(=O)[C@H](CC(C)C)NC(=O)[C@H](Cc1ccc(O)cc1)NC(=O)[C@H](CO)NC(=O)[C@H](CO)NC(=O)[C@@H](NC(=O)[C@H](CC(=O)O)NC(=O)[C@H](CO)NC(=O)[C@@H](NC(=O)[C@H](Cc1ccccc1)NC(=O)[C@@H](NC(=O)CNC(=O)[C@H](CCC(=O)O)NC(=O)[C@H](C)NC(=O)[C@@H](N)Cc1cnc[nH]1)[C@@H](C)O)[C@@H](C)O)C(C)C)C(=O)N[C@@H](CCC(=O)O)C(=O)N[C@@H](Cc1ccccc1)C(=O)N[C@H](C(=O)N[C@@H](C)C(=O)N[C@@H](Cc1c[nH]c2ccccc12)C(=O)N[C@@H](CC(C)C)C(=O)N[C@H](C(=O)N[C@@H](CCCNC(=N)N)C(=O)NCC(=O)N[C@@H](CCCNC(=N)N)C(=O)NCC(=O)O)C(C)C)[C@@H](C)CC)C(=O)O [Liraglutide, Arg34,Lys26-(N-epsilon-(gamma-L-glutamyl(N-alfa-hexadecanoyl)))-GLP-1(7-37)]
Diabetic foot ulcer events, % (proportion of subjects) (Outcome: Fatal): <0.1%
Diabetic foot ulcer events, N (number of subjects) (Outcome: Fatal): 2
Frequency of outcomes which were either fatal or resulted in recovery with sequelae (compared to placebo): Reduced frequency
